Data: the supplement of paper PMC12823440, “Inhibitors supercharge kinase turnover through native proteolytic circuits” (Nature, 2025)
Where a name gives a salt, the structure may show the parent alone. This is one part of the list. The calls rarely recur for the same compound in another form.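 Kinases, fused to nanoluciferase, were expressed in K562 cells; luminescence was measured every 4 h from 2 to 18 h as percent of control (DMSO = 100%, positive control = 0%). A time point is decreased if signal falls significantly (2 sigma). Hits were called by the authors by a rule that is not shown; the count of time points alone does not decide it.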

Protein sequences, listed by entry. Tags and fused reporters are not part of them. Lines headed by an entry give the natural chain unless they say otherwise; changes in a name come on top.
UniProt Q9UM73: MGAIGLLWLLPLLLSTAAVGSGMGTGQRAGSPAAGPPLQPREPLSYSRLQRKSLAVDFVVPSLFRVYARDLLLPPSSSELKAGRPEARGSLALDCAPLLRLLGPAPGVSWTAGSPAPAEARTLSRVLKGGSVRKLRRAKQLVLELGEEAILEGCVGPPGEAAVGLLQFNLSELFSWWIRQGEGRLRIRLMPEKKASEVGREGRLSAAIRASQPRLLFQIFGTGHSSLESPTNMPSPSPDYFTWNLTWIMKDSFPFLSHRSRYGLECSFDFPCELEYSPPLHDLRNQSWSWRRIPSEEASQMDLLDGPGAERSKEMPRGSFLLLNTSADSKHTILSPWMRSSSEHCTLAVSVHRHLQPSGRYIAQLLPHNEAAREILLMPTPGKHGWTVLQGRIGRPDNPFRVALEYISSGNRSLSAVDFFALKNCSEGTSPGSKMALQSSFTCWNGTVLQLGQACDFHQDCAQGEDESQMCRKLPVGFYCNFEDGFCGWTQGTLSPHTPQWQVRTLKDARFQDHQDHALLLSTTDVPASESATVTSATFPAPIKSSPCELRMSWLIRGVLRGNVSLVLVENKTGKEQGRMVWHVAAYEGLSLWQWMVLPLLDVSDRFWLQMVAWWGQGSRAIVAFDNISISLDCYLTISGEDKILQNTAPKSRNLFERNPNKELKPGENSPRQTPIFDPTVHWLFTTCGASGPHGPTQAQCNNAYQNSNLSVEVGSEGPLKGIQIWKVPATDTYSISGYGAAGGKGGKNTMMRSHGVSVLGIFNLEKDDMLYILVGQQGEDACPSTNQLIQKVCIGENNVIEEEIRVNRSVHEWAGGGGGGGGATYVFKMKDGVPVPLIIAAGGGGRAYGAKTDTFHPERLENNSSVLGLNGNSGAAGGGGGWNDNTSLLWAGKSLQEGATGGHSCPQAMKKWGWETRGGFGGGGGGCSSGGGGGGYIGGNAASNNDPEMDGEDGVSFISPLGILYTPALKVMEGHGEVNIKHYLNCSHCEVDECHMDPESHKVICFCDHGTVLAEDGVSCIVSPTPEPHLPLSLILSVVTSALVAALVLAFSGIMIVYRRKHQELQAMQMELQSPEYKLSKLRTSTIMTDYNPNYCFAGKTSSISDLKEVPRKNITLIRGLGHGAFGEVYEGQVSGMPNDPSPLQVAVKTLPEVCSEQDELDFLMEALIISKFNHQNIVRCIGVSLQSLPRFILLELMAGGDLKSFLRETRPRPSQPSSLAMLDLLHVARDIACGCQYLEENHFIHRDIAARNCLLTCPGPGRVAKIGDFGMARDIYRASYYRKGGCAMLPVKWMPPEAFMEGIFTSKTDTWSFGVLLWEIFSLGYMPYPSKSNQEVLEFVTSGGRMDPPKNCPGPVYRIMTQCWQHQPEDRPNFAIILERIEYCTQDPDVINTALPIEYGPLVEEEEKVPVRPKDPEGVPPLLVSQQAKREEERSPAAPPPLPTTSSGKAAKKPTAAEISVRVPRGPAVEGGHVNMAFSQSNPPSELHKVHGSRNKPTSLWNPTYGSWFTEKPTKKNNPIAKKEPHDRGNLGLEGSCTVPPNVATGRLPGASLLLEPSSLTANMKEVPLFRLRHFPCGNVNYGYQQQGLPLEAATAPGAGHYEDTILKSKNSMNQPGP
UniProt O14965: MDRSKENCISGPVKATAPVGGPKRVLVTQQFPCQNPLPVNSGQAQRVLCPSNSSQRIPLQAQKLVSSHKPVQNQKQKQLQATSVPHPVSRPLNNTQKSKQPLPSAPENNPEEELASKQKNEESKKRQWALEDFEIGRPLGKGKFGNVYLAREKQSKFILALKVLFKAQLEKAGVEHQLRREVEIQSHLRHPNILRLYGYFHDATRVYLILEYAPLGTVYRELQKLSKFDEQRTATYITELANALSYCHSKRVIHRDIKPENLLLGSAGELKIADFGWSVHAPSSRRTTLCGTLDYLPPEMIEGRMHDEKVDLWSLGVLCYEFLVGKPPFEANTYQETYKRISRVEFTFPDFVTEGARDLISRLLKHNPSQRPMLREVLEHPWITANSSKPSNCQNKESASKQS
UniProt Q96GD4, whole entry: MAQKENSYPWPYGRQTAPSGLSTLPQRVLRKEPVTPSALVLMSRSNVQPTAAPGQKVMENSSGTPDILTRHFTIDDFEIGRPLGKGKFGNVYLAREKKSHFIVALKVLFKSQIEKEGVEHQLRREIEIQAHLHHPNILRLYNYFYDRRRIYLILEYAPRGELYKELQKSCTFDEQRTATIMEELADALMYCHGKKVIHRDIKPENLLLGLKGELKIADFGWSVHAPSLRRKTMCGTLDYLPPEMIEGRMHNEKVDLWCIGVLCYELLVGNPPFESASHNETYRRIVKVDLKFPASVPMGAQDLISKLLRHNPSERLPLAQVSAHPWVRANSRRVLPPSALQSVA
UniProt P51451: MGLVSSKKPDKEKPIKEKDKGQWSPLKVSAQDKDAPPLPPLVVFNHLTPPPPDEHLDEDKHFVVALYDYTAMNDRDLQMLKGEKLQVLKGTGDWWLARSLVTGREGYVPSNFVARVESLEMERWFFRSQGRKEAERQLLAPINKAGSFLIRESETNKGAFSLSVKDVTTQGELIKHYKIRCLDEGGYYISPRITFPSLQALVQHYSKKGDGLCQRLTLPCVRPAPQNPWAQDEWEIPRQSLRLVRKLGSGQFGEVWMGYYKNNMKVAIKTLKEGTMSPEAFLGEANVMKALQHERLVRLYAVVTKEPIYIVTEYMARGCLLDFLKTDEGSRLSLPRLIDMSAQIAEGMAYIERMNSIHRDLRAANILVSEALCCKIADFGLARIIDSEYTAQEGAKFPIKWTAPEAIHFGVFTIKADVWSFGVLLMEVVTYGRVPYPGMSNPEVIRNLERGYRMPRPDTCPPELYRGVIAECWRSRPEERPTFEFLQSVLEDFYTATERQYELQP
UniProt Q9UQM7, whole entry: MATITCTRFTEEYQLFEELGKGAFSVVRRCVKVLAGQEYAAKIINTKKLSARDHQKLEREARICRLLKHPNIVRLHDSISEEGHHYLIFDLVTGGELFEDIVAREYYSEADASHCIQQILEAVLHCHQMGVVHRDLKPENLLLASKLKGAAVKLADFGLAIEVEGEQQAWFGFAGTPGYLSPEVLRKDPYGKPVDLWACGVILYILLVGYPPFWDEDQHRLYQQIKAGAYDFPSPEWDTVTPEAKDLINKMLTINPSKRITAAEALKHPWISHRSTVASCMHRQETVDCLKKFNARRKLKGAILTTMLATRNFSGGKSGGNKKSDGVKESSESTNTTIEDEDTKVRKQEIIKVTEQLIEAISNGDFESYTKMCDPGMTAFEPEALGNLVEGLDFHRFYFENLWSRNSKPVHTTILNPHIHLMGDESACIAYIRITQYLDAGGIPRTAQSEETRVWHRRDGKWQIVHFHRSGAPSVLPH
UniProt Q13555: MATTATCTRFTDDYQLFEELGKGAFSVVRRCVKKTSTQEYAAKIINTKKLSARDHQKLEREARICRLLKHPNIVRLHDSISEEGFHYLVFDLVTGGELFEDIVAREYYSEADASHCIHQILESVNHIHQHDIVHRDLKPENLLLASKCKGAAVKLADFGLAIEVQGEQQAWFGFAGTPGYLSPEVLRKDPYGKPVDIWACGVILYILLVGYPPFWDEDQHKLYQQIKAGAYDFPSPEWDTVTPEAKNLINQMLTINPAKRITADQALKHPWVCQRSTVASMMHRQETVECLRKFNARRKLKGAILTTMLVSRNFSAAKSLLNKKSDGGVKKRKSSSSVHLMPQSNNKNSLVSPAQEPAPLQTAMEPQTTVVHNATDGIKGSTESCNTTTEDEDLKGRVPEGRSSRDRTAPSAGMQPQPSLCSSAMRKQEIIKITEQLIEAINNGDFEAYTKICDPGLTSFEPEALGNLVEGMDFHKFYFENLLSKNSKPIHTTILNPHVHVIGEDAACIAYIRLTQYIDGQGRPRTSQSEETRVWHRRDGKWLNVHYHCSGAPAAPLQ
UniProt Q00526: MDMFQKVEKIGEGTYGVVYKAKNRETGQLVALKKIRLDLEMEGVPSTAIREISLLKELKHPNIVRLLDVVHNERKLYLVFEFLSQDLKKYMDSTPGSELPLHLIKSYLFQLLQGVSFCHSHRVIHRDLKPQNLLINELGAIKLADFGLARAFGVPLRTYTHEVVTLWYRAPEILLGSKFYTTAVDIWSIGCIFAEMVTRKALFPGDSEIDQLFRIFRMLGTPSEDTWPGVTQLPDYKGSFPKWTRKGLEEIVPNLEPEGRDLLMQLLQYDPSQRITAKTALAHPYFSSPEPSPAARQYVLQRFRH
UniProt Q00535, whole entry, looked up: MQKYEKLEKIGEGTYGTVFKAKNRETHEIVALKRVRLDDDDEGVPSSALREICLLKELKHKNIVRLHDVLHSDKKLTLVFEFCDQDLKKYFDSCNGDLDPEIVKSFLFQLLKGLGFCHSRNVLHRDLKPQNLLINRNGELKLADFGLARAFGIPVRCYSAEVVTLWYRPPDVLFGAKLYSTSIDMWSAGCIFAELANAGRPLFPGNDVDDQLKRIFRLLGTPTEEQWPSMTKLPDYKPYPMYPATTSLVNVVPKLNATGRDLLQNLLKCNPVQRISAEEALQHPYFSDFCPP
UniProt Q00534, whole entry: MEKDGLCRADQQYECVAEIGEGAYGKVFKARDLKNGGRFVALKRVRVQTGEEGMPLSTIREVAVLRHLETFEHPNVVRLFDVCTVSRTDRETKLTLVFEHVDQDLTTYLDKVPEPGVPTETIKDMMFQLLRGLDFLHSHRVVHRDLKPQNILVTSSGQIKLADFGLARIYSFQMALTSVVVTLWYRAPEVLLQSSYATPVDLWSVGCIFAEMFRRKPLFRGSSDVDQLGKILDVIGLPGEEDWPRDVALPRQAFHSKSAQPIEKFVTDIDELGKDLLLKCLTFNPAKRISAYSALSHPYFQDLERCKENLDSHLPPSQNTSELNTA
UniProt O96017, whole entry: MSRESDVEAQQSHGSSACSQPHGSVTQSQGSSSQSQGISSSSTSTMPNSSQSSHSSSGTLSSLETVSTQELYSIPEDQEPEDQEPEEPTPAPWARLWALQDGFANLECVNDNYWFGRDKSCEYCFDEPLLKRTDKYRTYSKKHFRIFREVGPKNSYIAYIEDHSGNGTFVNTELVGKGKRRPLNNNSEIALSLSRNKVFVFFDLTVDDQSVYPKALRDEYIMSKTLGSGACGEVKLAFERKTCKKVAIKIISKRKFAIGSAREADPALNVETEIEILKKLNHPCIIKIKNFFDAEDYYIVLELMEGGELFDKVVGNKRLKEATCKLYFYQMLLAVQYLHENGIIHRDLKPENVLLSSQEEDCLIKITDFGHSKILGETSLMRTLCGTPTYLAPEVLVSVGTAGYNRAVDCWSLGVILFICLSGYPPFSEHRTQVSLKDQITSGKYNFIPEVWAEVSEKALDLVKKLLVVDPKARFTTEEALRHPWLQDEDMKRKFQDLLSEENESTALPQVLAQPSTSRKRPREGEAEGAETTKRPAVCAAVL
UniProt P07333, whole entry: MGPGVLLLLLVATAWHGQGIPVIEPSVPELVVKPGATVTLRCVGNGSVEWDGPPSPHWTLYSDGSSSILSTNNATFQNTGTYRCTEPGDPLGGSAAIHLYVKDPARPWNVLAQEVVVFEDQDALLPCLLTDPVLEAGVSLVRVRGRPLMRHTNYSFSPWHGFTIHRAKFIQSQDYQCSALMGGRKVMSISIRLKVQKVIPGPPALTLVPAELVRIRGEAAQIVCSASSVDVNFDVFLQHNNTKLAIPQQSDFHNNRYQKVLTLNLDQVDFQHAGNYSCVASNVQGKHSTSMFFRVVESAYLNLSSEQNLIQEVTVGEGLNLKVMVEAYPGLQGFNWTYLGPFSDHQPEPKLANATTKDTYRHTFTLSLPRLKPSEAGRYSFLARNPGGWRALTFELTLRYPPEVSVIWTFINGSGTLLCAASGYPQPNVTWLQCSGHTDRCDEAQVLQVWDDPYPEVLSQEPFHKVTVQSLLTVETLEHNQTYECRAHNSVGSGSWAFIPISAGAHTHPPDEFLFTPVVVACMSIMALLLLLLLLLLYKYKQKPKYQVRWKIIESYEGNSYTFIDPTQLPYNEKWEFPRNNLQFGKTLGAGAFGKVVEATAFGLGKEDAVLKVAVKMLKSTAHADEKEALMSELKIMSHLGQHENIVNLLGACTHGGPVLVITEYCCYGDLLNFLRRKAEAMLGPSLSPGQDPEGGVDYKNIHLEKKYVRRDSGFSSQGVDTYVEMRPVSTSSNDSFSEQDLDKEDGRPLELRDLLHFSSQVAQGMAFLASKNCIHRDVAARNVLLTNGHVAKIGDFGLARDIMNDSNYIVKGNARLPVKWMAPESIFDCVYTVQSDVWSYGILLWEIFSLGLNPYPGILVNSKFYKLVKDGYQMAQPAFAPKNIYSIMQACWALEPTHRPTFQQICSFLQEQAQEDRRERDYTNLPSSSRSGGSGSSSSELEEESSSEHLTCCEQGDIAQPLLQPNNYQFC

Key:
Test in all cases: number of time points (of 5) at which kinase-Nluc abundance scored as decreased, DMSO-normalised (count); higher = more persistent destabilization
Conditions in all cases: K562; 2-18 h
ALK = ALK (UniProt Q9UM73)
ARAF = ARAF (UniProt P10398)
AURKA = AURKA (UniProt O14965)
AURKB = AURKB (UniProt Q96GD4)
AURKC = AURKC (UniProt Q9UQB9)
BLK = BLK (UniProt P51451)
BMX = BMX (UniProt P51813)
BRAF = BRAF (UniProt P15056)
BRAF_V600E = system: BRAF_V600E
BTK = BTK (UniProt Q06187)
CAMK2A = CAMK2A (UniProt Q9UQM7)
CAMK2G = CAMK2G (UniProt Q13555)
CDK10 = CDK10 (UniProt Q15131)
CDK2 = CDK2 (UniProt P24941)
CDK3 = CDK3 (UniProt Q00526)
CDK5 = CDK5 (UniProt Q00535)
CDK6 = CDK6 (UniProt Q00534)
CHEK2 = CHEK2 (UniProt O96017)
CSF1R = CSF1R (UniProt P07333)
CSK = CSK (UniProt P41240)

SMILES	number of time points (ALK)	number of time points (ARAF)	number of time points (AURKA)	number of time points (AURKB)	number of time points (AURKC)	number of time points (BLK)	number of time points (BMX)	number of time points (BRAF)	number of time points (BRAF_V600E)	number of time points (BTK)	number of time points (CAMK2A)	number of time points (CAMK2G)	number of time points (CDK10)	number of time points (CDK2)	number of time points (CDK3)	number of time points (CDK5)	number of time points (CDK6)	number of time points (CHEK2)	number of time points (CSF1R)	number of time points (CSK)
CN1CCN(c2ccc(-c3ccncc3-c3cc(F)c(O)c(F)c3)cc2)CC1 (10 µM)	0	0	0	0	0	0	0	0	0	0	0	0	0	0	0	0	0	0	0	0
Cc1n[nH]c2ncc(C(=O)N3CCC[C@H]3c3ccc(Cl)cc3)cc12 (10 µM)	0	0	0	0	0	0	0	0	0	0	0	0	0	0	0	0	0	0	0	0
COc1cccc(-c2cc(=O)c3ccccc3o2)c1N (10 µM)	0	0	0	0	0	0	0	0	0	0	0	0	0	0	0	0	0	0	0	0
Nc1[nH]nc2nnc(-c3c(-c4ccccc4)nn4ccccc34)cc12 (10 µM)	0	0	1	0	0	0	0	0	0	0	0	0	0	0	0	0	0	0	0	0
NC(=O)c1sc2c([N+](=O)[O-])cc(C(F)(F)F)cc2[n+]1[O-] [Cyclapolin 9] (10 µM)	0	0	0	0	0	0	0	0	0	0	0	0	0	0	0	0	0	0	0	0
Cc1cncc2cccc(S(=O)(=O)N3CCCNC[C@@H]3C)c12 [H-1152 (dihydrochloride)] (10 µM)	0	0	0	0	0	0	0	0	0	0	0	0	0	0	0	0	0	0	0	0
S=C(NCc1ccc2c(c1)OCO2)N1CCN(c2ncnc3c2oc2ccccc23)CC1 [Amuvatinib] (2.5 µM)	0	0	0	0	0	1	0	0	0	0	0	0	0	0	0	0	0	0	0	0
Cn1cnc2c(F)c(Nc3ccc(Br)cc3F)c(C(=O)NOCCO)cc21 [Binimetinib] (10 µM)	0	0	0	4	0	0	0	0	0	0	0	0	0	0	0	0	0	0	0	0
O=C1OC(COc2ccccc2[N+](=O)[O-])CC1Cc1ccccc1 (stereo not given) (10 µM)	0	0	0	0	0	0	0	0	0	0	0	0	0	0	0	0	0	0	0	0
Nc1ccc(-c2nc3ccc(-c4nc5ccc(N)cc5[nH]4)cc3[nH]2)cc1 (10 µM)	0	0	0	0	0	0	0	0	0	0	0	0	0	0	0	0	0	0	0	0
CCCS(=O)(=O)N[C@H]1C[C@@H](N(C)c2ncnc3[nH]ccc23)C1 [Abrocitinib] (10 µM)	0	0	0	0	0	0	0	0	0	0	0	0	0	0	0	0	0	0	0	0
Fc1ccc(Cl)cc1-c1nc(Nc2ccncc2)c2nccnc2n1 (10 µM)	0	0	0	0	0	0	0	0	0	0	0	0	0	0	0	0	0	0	0	0
COCCOc1cnc2ccn([C@H](C)c3nnc4c(F)cc(-c5cnn(C)c5)cn34)c(=O)c2c1 (10 µM)	0	0	0	0	0	0	0	0	0	0	0	0	0	0	0	0	0	0	0	0
COc1ccc(CN2CCC(c3ccc4nc(C(=O)N5CCN(Cc6ccc(C(F)(F)F)cc6)CC5)[nH]c4c3)CC2)cn1 (2.5 µM)	0	0	0	0	0	0	0	0	1	0	0	0	0	0	0	0	0	0	0	0
CC(ONC(=O)c1cc(C(F)(F)F)cc(C(F)(F)F)c1)C(=O)Nc1ccc(Cl)cc1 (stereo not given) (2.5 µM)	0	0	0	0	0	0	5	0	0	0	0	0	0	0	0	0	0	0	0	0
O=C1Cc2ccccc2N1 [Oxindole] (10 µM)	0	0	0	0	0	0	0	0	0	0	0	0	0	0	0	0	0	0	0	0
O=C1CCC(N2C(=O)c3cccc(OCCCCCOc4ccc(CC(=O)Nc5cc(C6CCC6)[nH]n5)cc4)c3C2=O)C(=O)N1 (stereo not given) [PROTAC CDK9 Degrader-1] (10 µM)	3	0	3	0	0	0	0	0	1	0	0	0	0	0	0	0	0	0	0	0
COc1cc(Nc2ccnc3ccc(Br)cc23)cc(OC)c1OC (2.5 µM)	1	0	0	0	0	0	0	0	0	0	0	1	0	0	0	0	0	1	0	0
COc1cc2c(cc1OC)[C@@H]1C(=O)c3ccc4c(c3O[C@@H]1CO2)C=CC(C)(C)O4 [Deguelin] (10 µM)	0	0	3	0	0	2	0	0	0	0	0	0	0	0	0	0	0	0	0	0
CN(C[C@@H]1COCCO1)S(=O)(=O)Nc1ccc2ccc3ncc(-c4cnn(C)c4)cc3c(=O)c2c1 (2.5 µM)	0	0	0	0	0	0	0	0	0	0	0	0	0	0	0	0	0	0	0	0
COc1c(O)cc(O)c2c(=O)cc(-c3ccccc3)oc12 [Wogonin] (10 µM)	0	0	0	0	0	0	0	0	0	0	0	0	0	0	0	0	0	0	0	0
N#Cc1cc(N2CCC(C(=O)N3N=CC[C@H]3c3cc(F)cc(F)c3)CC2)ncn1 (10 µM)	0	0	0	0	0	0	0	0	0	0	0	0	0	0	0	0	0	0	0	0
CCc1cc(Nc2nccc(-c3c(-c4ccc(OC)c(C(=O)Nc5c(F)cccc5F)c4)nc4ccccn34)n2)c(OC)cc1N1CCC(N2CCN(S(C)(=O)=O)CC2)CC1 (2.5 µM)	0	0	0	0	0	0	0	0	0	0	0	0	0	0	0	0	4	1	0	0
CN(C)CCn1cc2cc(NC(=O)c3cccc(C(F)(F)F)n3)c(C(C)(C)O)cc2n1 (10 µM)	0	0	0	0	0	0	0	0	0	0	0	0	0	0	0	0	0	0	0	0
O=C(Nc1ccnc(NC(=O)C2CC2)c1)c1c(Cl)cccc1Cl (10 µM)	0	0	1	0	0	1	0	0	4	0	0	0	0	0	0	0	0	0	0	0

One compound at a time, from the list above. Values in the order: number of time points (ALK)	number of time points (ARAF)	number of time points (AURKA)	number of time points (AURKB)	number of time points (AURKC)	number of time points (BLK)	number of time points (BMX)	number of time points (BRAF)	number of time points (BRAF_V600E)	number of time points (BTK)	number of time points (CAMK2A)	number of time points (CAMK2G)	number of time points (CDK10)	number of time points (CDK2)	number of time points (CDK3)	number of time points (CDK5)	number of time points (CDK6)	number of time points (CHEK2)	number of time points (CSF1R)	number of time points (CSK)
S=C(NCc1ccc2c(c1)OCO2)N1CCN(c2ncnc3c2oc2ccccc23)CC1 [Amuvatinib] (2.5 µM) is listed with 0	0	0	0	0	1	0	0	0	0	0	0	0	0	0	0	0	0	0	0
CC(ONC(=O)c1cc(C(F)(F)F)cc(C(F)(F)F)c1)C(=O)Nc1ccc(Cl)cc1 (stereo not given) (2.5 µM) is listed with 0	0	0	0	0	0	5	0	0	0	0	0	0	0	0	0	0	0	0	0
